We go through one substance from patent US7745191B2, “Method of producing heterodimer derivative of protein phosphatase type 2A enzyme” (Tropical Technology Center Ltd., priority 2005, dated 2010).

Amino acid sequences for entries named in this document (tags omitted). A change or cut given only in a name is not applied to a line headed by its entry. Chains listed by the source or under a name are the forms on record and can include a tag or linker.
human PP2A A subunit (PR65α/Aα) carrying FLAG tag (FLAG-PR65α/Aα) (P30153, form named): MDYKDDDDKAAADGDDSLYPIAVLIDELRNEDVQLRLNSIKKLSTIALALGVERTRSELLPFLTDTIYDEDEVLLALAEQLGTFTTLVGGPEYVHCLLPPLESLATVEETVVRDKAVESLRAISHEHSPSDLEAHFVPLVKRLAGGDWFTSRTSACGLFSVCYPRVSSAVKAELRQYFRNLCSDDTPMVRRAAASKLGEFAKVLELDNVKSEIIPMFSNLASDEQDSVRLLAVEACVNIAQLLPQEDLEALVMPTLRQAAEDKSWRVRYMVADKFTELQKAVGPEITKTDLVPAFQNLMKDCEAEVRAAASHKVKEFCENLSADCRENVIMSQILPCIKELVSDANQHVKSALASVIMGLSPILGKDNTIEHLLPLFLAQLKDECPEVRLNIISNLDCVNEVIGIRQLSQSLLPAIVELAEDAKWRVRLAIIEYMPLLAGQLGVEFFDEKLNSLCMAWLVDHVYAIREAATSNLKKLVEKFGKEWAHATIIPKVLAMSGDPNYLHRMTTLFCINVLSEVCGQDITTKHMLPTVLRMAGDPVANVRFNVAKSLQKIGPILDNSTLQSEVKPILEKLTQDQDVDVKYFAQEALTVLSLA
catalytic subunit of human PP2A, β-isoform, carrying a polyhistidine tag (His-PP2Acβ) (P62714, form named): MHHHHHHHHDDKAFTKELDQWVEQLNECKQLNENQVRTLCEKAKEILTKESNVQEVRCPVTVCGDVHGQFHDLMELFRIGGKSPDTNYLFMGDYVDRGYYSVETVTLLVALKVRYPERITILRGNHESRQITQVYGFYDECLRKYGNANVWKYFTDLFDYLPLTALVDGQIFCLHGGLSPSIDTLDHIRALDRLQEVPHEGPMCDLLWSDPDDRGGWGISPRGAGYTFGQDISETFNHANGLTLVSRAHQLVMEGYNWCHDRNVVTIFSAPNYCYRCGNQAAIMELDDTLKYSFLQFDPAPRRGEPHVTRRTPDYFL

No constants are given. Whether binding was seen depends on the method and setting. In cells and extracts the contact can be indirect. Some results given as binding are weak or reduced against the parent protein; the word gives no strength.

The experiment addresses human PP2A A subunit (PR65α/Aα) carrying FLAG tag (FLAG-PR65α/Aα) (human) (UniProt P30153). Briefly: co-expression in High Five cells, then two-step co-purification (Ni-NTA agarose, then anti-FLAG M2 affinity gel), confirmed by SDS-PAGE.

On to “catalytic subunit of human PP2A, β-isoform, carrying a polyhistidine tag (His-PP2Acβ) (from UniProt P62714 2-309) (enzyme)”, for which the binding result is reported as “binds”.
